From PubChem BioAssay (NCATS)
The shares of active, inactive and inconclusive entries below differ from those in the screen. Potencies of inconclusive entries are doubtful fits and often do not repeat. Active and inactive are the calls of the source. Calls follow the shape of the dose curve; as a rule, active = well fitted activation curve with a large enough effect; inconclusive = small, poorly fitted or top-dose-only effect, or another doubt; inactive = no such curve, though single readings can be large or run the other way.

Molecular target: Rap guanine nucleotide exchange factor 3 (Homo sapiens) (UniProt O95398)
Assay: Counterscreen qHTS for agonist of cAMP-regulated guanine nucleotide exchange factor 3 (EPAC1) (AID 1645889); also: nearly all actives have a fitted effect of over 40% in size; as to activation: % of control where 0% means no effect
Conditions: EPAC1 Rap1B-BODIPY-GDP exchange, fluorescence; activation: at 154 µM (top of the series) unless noted
Source text: Assay Provider (PI): Xiaodong Cheng Ph.D. The University of Texas Medical Branch, […], TX MLPCN Grant: NS066510 In multi-cellular eukaryotic organisms, the effects of cAMP are transduced by two ubiquitously-expressed intracellular cAMP receptors, the classic protein kinase A/cAMP-dependent protein kinase (PKA/cAPK) and the more recently discovered exchange protein directly activated by cAMP/cAMP-regulated guanine nucleotide exchange factor (EPAC/cAMP-GEF). Both PKA and EPAC are ubiquitously expressed in all tissues, and an increase in intracellular cAMP levels will lead to the activation of both PKA and EPAC. Therefore, careful dissections of the individual role and relative contribution of EPAC and PKA within the overall cAMP signaling in various model systems are critical for further elucidating the mechanism of cAMP signaling. To date no EPAC-specific antagonists and agonist, as well as isoform-specific agonists have been reported, and developing EPAC-specific pharmacological probes to determine the physiological functions that EPAC play in the overall cAMP-mediated signaling remains a major challenge within the research field. Furthermore, identified regulators of EPAC may lead to new mechanism-based therapeutic strategies specifically targeting the EPAC / cAMP-signaling components as EPAC has been implicated to play important roles in major human pathological conditions such as diabetes, heart disease, and cancer. This qHTS will be used to screen the Molecular Libraries Small Molecule Repository (MLSMR) as a concentration-titration series using the NCGC unique quantitative screening (qHTS) platform to find activators for EPAC1. In addition, this assay will also be used as a counterscreen for the EPAC2 qHTS. This fluorescent based assay is developed and validated for EPAC1 that measures exchange using EPAC effector Rap1 complex with BODIPY-GDP, a GDP analog with a tethered fluorophores. Activators are identified by monitoring the change in fluorescence signal as the exchanged free BODIPY-GDP has a reduced fluorescence compared to Rap1-bound BODIPY-GDP. Increase in signal (activation) is the desired outcome for the EPAC1 agonist while no activity in this assay is desired for the EPAC2 agonist counterscreen. Reference: [1] de Rooij, J., Zwartkruis, F. J., Verheijen, M. H., Cool, R. H., Nijman, S. M., Wittinghofer, A., and Bos, J.L. (1998) Nature 396, 474-477. Kawasaki, H., Springett, G. M., Mochizuki, N., Toki, S., Nakaya, M., Matsuda, M., Housman, D. E., and Graybiel, A. M. (1998) Science 282, 2275-2279.
EPAC1 Counterscreen PROTOCOL TABLE SEQUENCE No. (e.g., 1, 2, 3, etc.); […] (e.g., Cells, Incubation, Reagent, etc.); VALUE and DESCRIPTION. 1. Reagent. 3 uL. [1x] 250 nM Rap1B-BODIPY-GDP, and 50 uM GDP. 2a. Compound. 23 nL. Control 6,572 uM cAMP (working concentration). 2b, 2c. Compound. 23 nL. Control activator and inhibitor; 234 - 30,000 uM cAMP and 16.4 - 10,000 uM. 2d. Compound. 46 nL. MLSMR follow-up library; 0.64 - 10,000 uM. 3. Time. 15 sec, 1000rpm. Centrifuge. 4. Time. 5 min. Incubation at room temperature. 5. Detector. Fluorescence. (Read 1), Ex/Em = 480 nm / 540 nm. 6. Time. 30 min. Incubation at room temperature. 7. Detector. Fluorescence. (Read 2), Ex/Em = 480 nm/ 540 nm. 8. Reagent. 1uL. Dispense either [4x] 10 uM cAMP or buffer. 9. Time. 15 sec, 1000 rpm. Centrifuge. 10. Time. 5 min. Incubation at room temperature. 11. Detector. Fluorescence. (Read 3), Ex/Em = 480 nm / 540 nm. 12. Time. 30 min. Incubation at room temperature. 13. Detector. Fluorescence. (Read 4), Ex/Em = 480 nm / 540 nm. NOTES (numbers refer to Sequence numbers above; values are from representative experiments) 1. Medium-binding black solid-bottom Greiner plates (789176-F). Dispense 3 uL of [1x] 250 nM Rap1B-BODIPY-GDP, and 50 uM GDP into columns 1 to 48. 2a. Control compound cAMP (6,572 uM, column 3, rows 1 to 32) single pin-transferred for a [final] of 50 uM. 2b. […]
Potency is read from the fitted curve at half-maximal effect.

Row | SMILES | activation | Potency
1 | CCOC(=O)[C@]12Cc3cc(Cl)ccc3[C@H]1N(C(C)C)C(=O)c1ccccc12 | inconclusive: 37.8% [activator] | –
2 | O=C1NC(=O)N(Cc2ccc(F)cc2)C(=O)/C1=C\c1ccc([N+](=O)[O-])s1 | – | active: 22.4 µM
3 | Cc1cc2ccccn2c1C(C[N+](=O)[O-])c1c(F)cccc1Cl (stereo not given) | – | inconclusive: 7.94 µM [activator, partial curve, poor fit]
4 | CCCSc1nc2ccccc2c(=O)n1-c1ccccc1OC | inconclusive: 20.1% [activator] | –
5 | NC(=O)c1ccc(N=Cc2c(O)n(Cc3ccco3)c(=O)[nH]c2=O)cc1 | inactive: 15.9% | –
6 | COc1ccc(CN2C(=O)NC(=O)/C(=C\c3ccco3)C2=O)cc1 | – | inconclusive: 11.2 µM [activator, partial curve, poor fit]
7 | CN1CC[C@@]2(C)c3cc(O)ccc3N(C)[C@@H]12 | – | active: 5.62 µM
8 | CCCCNC(=O)c1c(N)n(CCCOC)c2nc3ccccc3nc12 | – | inconclusive: 14.1 µM [activator, single point]
9 | COC(=O)C1C2c3ccccc3C(c3ccccc32)C1(C)C(=O)OC (stereo not given) | inconclusive: 52.4% [activator] [at 30.8 µM] | –
10 | CCCCn1c(O)c(C=NCCN2CCCCC2)c(=O)[nH]c1=O | inactive: -3.38% | –
11 | O=[N+]([O-])c1ccc(N2CCOCC2)c2c1no[n+]2[O-] | inactive: -72.6% | –
12 | FC(F)(F)c1cccc(C2NCc3ccccc3-n3cccc32)c1 (stereo not given) | inconclusive: 67.9% [activator] [at 30.8 µM] | –
13 | COC(=O)c1cn(Cc2ccc(F)cc2)c2ccccc12 | – | inconclusive: 63.1 µM [activator, partial curve, poor fit]
14 | CCN(CC)c1ccc(N=Cc2c(O)n(CCc3ccc(OC)c(OC)c3)c(=O)[nH]c2=O)cc1 | – | inconclusive: 10 µM [activator, partial curve, poor fit]
15 | CCOC(=O)c1cc(CC)sc1/N=C/C1C(=O)NC(=S)NC1=O | inconclusive: 54.4% [activator] [at 30.8 µM] | –
16 | COc1ccc(C2C=C(C)Oc3c2c(=O)oc2ccccc32)cc1OC (stereo not given) | – | inconclusive: 44.7 µM [activator, partial curve, poor fit]
17 | O=c1cc(C(F)(F)F)c2cc3c4c(c2o1)CCCN4CCC3 | – | active: 50.1 µM
18 | Cc1cccc(-c2nc(CN3C(=O)CN=C(c4ccccc4)c4ccccc43)c(C)o2)c1 | – | inconclusive: 8.91 µM [activator, single point]
19 | Cc1ccc(N2C(=O)NC(=O)/C(=C\C=C\c3ccco3)C2=O)cc1 | – | inconclusive: 63.1 µM [activator, partial curve]
20 | Cc1cc(/C=C2\C(=O)NC(=O)N(Cc3ccccc3Cl)C2=O)c(C)n1-c1ccc(C(=O)O)cc1 | – | inconclusive: 0.316 µM [activator, partial curve, poor fit]

Row | SMILES | activation | Potency
21 | Clc1ccc(COC(Cn2ccnc2)c2ccc(Cl)cc2Cl)c(Cl)c1 (stereo not given) | – | inconclusive: 1.41 µM [activator, full curve, poor fit]
22 | O=Cc1c(C(=O)O)n(Cc2ccc(Cl)cc2)c2ccccc12 | – | active: 15.8 µM
23 | CCCCN1C(=O)/C(=C/c2ccc(N(C)C)cc2)C(=O)N(Cc2ccco2)C1=O | inconclusive: 55% [activator] [at 30.8 µM] | –
24 | O=c1nc(/C=C/c2ccc(Cl)cc2Cl)cc(C(F)(F)F)[nH]1 | inactive: 4.81% [at 30.8 µM] | –
25 | O=C1NC(=O)N(Cc2ccco2)C(=O)/C1=C\c1cccn1CCOc1ccc(Cl)cc1 | inconclusive: 57.1% [activator] [at 30.8 µM] | –
26 | O=[N+]([O-])c1ccc(N(CCO)CCO)c2c1no[n+]2[O-] | inactive: -409% | –
27 | COc1cccc(C(c2nnnn2Cc2ccccc2)N2CCC(n3c(=O)[nH]c4ccccc43)CC2)c1OC (stereo not given) | – | inconclusive: 15.8 µM [activator, partial curve]
28 | CC(Cc1ccc(O)cc1)NCC(O)c1ccc(O)c(O)c1 (stereo not given) | – | inconclusive: 0.0316 µM [activator, full curve, poor fit]
29 | COC1C(C)OC(OC2CC(C)(O)Cc3cc4c(c(O)c32)C(=O)c2c(O)cc3c(c2C4=O)OC2OC3(C)C(O)C(N(C)C)C2O)C(OC)C1(C)OC (stereo not given) | – | inconclusive: 12.6 µM [activator, partial curve]
30 | CCOC(=O)c1cc(CC)sc1/N=C/c1c(O)[nH]c(=S)[nH]c1=O | – | inconclusive: 0.01 µM [activator, full curve, poor fit]
31 | O=C1NC(=O)N(Cc2ccc(F)cc2)C(=O)/C1=C\C=C\c1ccco1 | inactive: 7.61% [at 30.8 µM] | –
32 | N/C(=N\N=C/c1ccc(-c2ccc(O)c(C(=O)O)c2)o1)N[N+](=O)[O-] | inconclusive: 41.9% [activator] | –
33 | CCN1C(=O)C(=C/C=C/c2ccco2)C(=O)N(CC)C1=S | – | inconclusive: 28.2 µM [activator, partial curve, poor fit]
34 | Cc1cc(/C=C2/C(=O)NC(=O)N(Cc3ccco3)C2=O)c(C)n1-c1ccccc1 | – | inconclusive: 0.01 µM [activator, full curve, poor fit]
35 | CCOC(=O)[C@]12Cc3cc(Cl)ccc3[C@H]1N(C1CCCCC1)C(=O)c1ccccc12 | – | inconclusive: 1.78 µM [activator, partial curve, poor fit]
36 | CC1=NCCc2c1[nH]c1cc(O)ccc21 | – | active: 12.6 µM
37 | Cc1ccccc1N1C(=O)NC(=O)/C(=C\c2ccc3c(c2)CCCN3Cc2ccccc2)C1=O | – | inconclusive: 44.7 µM [activator, partial curve]
38 | CCOC(=O)[C@]12Cc3cc(OC)ccc3[C@H]1N(Cc1ccccc1)C(=O)c1cc(F)c(F)cc12 | – | inconclusive: 0.158 µM [activator, full curve, poor fit]
39 | CC[C@@H]1c2ccccc2[C@@H]2CC[C@H]1N2c1ccccc1 | inactive: -4.47% [at 30.8 µM] | –
40 | COc1ccc(N2C(=O)/C(=C/c3ccco3)C(=O)NC2=S)cc1 | – | inconclusive: 4.47 µM [activator, partial curve, poor fit]
